{"source": "PubChem BioAssay AID1159578 | Peter MacCallum Cancer Centre, 2015", "screen": "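Genome-wide hunt for genes controlling movement of lymphatic endothelial cells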 (primary screen)", "cell system": "human lymphatic endothelial cells", "reagent": "siRNA pool against human genes, 40 nM", "duration": "48 h after transfection", "read-out": "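High-content imaging of dye-stained cells in a scratch assay measures filled wound area and nuclei per well; duplicate means given as ratio to mock and robust z-score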", "scale": "migration robust z-score: higher = faster migration into the scratch; nuclei per well: higher = more cells in the well", "rule for the call": "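Migration changed when robust z exceeds 2 or falls below -2 and mean nuclei number is at least 3300; otherwise not called changed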", "calls": "active = migration changed; inactive = no migration change, or too few cells", "note": "The whole screen tested about 18,000 reagents; below is a random part of them. Of all reagents, about 1,030 (5.7%) got an active call. 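Inactive calls also include pools with fewer than 3300 nuclei, whose migration was not assessed.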 Raw values vary from plate to plate and are shown uncorrected. Not all columns of the deposit are shown."}
{"gene":"OXGR1 (oxoglutarate receptor 1)","migration robust z-score":-0.88,"migration class with cell-count check":"migration z between -2 and 2; enough cells","nuclei per well, duplicate mean":5917,"outcome":"inactive"}
{"gene":"KLC1 (kinesin light chain 1)","migration robust z-score":-0.68,"migration class with cell-count check":"migration z between -2 and 2; enough cells","nuclei per well, duplicate mean":4641,"outcome":"inactive"}
{"gene":"OR5AP2 (olfactory receptor family 5 subfamily AP member 2)","migration robust z-score":-0.05,"migration class with cell-count check":"migration z between -2 and 2; enough cells","nuclei per well, duplicate mean":5183,"outcome":"inactive"}
{"gene":"ULK4 (unc-51 like kinase 4)","migration robust z-score":0.24,"migration class with cell-count check":"migration z between -2 and 2; enough cells","nuclei per well, duplicate mean":4402,"outcome":"inactive"}
{"gene":"LRFN3","migration robust z-score":-1.94,"migration class with cell-count check":"migration z between -2 and 2; enough cells","nuclei per well, duplicate mean":4954,"outcome":"inactive"}
{"gene":"MYOZ1 (myozenin 1)","migration robust z-score":-0.09,"migration class with cell-count check":"migration z between -2 and 2; enough cells","nuclei per well, duplicate mean":5308,"outcome":"inactive"}
{"gene":"CAPN3 (calpain 3)","migration robust z-score":0.26,"migration class with cell-count check":"migration z between -2 and 2; enough cells","nuclei per well, duplicate mean":5264,"outcome":"inactive"}
{"gene":"ZFR2 (zinc finger RNA binding protein 2)","migration robust z-score":0.39,"migration class with cell-count check":"migration z between -2 and 2; enough cells","nuclei per well, duplicate mean":4944,"outcome":"inactive"}
{"gene":"LDAF1 (lipid droplet assembly factor 1)","migration robust z-score":0.98,"migration class with cell-count check":"migration z between -2 and 2; enough cells","nuclei per well, duplicate mean":5244,"outcome":"inactive"}
{"gene":"MTTP (microsomal triglyceride transfer protein)","migration robust z-score":-0.68,"migration class with cell-count check":"migration z between -2 and 2; enough cells","nuclei per well, duplicate mean":6528,"outcome":"inactive"}
{"gene":"TTLL7 (tubulin tyrosine ligase like 7)","migration robust z-score":0.26,"migration class with cell-count check":"migration z between -2 and 2; enough cells","nuclei per well, duplicate mean":7094,"outcome":"inactive"}
{"gene":"FBXO16 (F-box protein 16)","migration robust z-score":-1.17,"migration class with cell-count check":"migration z between -2 and 2; enough cells","nuclei per well, duplicate mean":5114,"outcome":"inactive"}
{"gene":"ZNF609 (zinc finger protein 609)","migration robust z-score":-2.04,"migration class with cell-count check":"migration z below -2; enough cells","nuclei per well, duplicate mean":4442,"outcome":"active"}
{"gene":"ZNF768 (zinc finger protein 768)","migration robust z-score":1.29,"migration class with cell-count check":"migration z between -2 and 2; enough cells","nuclei per well, duplicate mean":5846,"outcome":"inactive"}

Reformatted: 2 of the entries above
OR5AP2 (olfactory receptor family 5 subfamily AP member 2)
- migration robust z-score: -0.05
- migration class with cell-count check: migration z between -2 and 2; enough cells
- nuclei per well, duplicate mean: 5183
- outcome: inactive

ULK4 (unc-51 like kinase 4)
- migration robust z-score: 0.24
- migration class with cell-count check: migration z between -2 and 2; enough cells
- nuclei per well, duplicate mean: 4402
- outcome: inactive
